Measurements as given in patent US20240002497A1.
These are yes or no findings as the source states them, for the method shown. Some entries that bind do so weakly or less than the wild type.

Chains of the proteins cited; added tags and fusions are not shown. Lines headed by an entry give the natural chain unless they say otherwise; changes in a name come on top.
UniProt O60939: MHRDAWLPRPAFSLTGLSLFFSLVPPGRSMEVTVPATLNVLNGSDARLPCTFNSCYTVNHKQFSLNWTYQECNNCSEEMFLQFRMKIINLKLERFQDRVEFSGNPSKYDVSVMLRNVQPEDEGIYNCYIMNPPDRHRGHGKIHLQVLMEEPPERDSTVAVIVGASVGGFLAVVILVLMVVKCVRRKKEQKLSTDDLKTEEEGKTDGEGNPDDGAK
UniProt Q07699: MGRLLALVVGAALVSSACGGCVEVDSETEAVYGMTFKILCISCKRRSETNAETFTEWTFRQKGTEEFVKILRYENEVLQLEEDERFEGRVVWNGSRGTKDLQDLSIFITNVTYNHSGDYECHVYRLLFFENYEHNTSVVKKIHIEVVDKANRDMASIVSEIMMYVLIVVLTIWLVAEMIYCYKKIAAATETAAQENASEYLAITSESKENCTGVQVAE

Columns and labels:
Navβ2 (human) [1] = molecular target: Navβ2 (human) (UniProt O60939); assay: binding ELISA
Navβ2 (human) [2] = molecular target: Navβ2 (human) (UniProt O60939); assay: classification of the 2nd ISVD
Navβ2 (human) [3] = molecular target: Navβ2 (human) (UniProt O60939); assay: binding FACS and binding ELISA with purified monovalent protein
Navβ1 (human) [4] = molecular target: Navβ1 (human) (UniProt Q07699); assay: binding ELISA
Navβ1 (human) [5] = molecular target: Navβ1 (human) (UniProt Q07699); assay: binding ELISA and binding FACS with purified monovalent protein
Navβ2 (human) [6] = molecular target: Navβ2 (human) (UniProt O60939); assay: as above
Navβ1 (human) [7] = molecular target: Navβ1 (human) (UniProt Q07699); assay: competition FACS with Nav1.7α-Navβ-subunit bispecific ISVDs

Binder	binding (Navβ2 (human) [1])	binding (Navβ2 (human) [6])	further results
F0103240B04 (VHH) VHH: EVQLVESGGGLVQAGGSLRLSCAASGGTGRRYAMGWFRQAPGKEREIVAAIRWSAMTYYADDGKGRFTISRDNAKNTVYLQMNSLKPEDTAIYYCAYTWDYFKYDQVRAYRGWGQGTLVTVSS	binds	–	binding (Navβ2 (human) [2]): binds; binding (Navβ2 (human) [3]): binds
F0103478E09 (VHH) VHH: EVQLVESGGGLVQAGGSLRLSCAASGRAFSTLAMGWFRQAPGKEREFVAAISRNGNNSATGDSLKGRFTISRDSTKSTVFLQMNTLKPEDTAVYYCAAISTPSASHPYVRKESYRYWGQGTLVTVSS	–	–	binding (Navβ1 (human) [4]): binds; binding (Navβ1 (human) [5]): binds
F0103492E09 (VHH) VHH: EVQLVESGGGLVQAGGSLRLSCAASKSILSFAYMRWYRQAPGKQREFVASIAIGGATSYTDSVKGRFTISRDNAKNTVYLQMNSLKPEDTAVYYCSAPAGQYRGQGTLVTVSS	binds	binds	–
F0103500E03 (VHH) VHH: EVQLVESGGGLVQPGGSLRLSCAASGRTFSRYQMGWFRQAPGKEREFVAYISWSGSTRYVDSVKGRFTISRDNAKNTVYLQMNSLKPEDTAVYHCAAGTAGIISSRPETYDSWGQGTLVTVSS	binds	binds	–
F0103505D08 (VHH) VHH: EVQLVESGGGLVQAGGSLRLSCVTSGRTSDLSTMNWFRQAPGKEREFVARITRRGSTYYAESVKERFIISRDNAKNTVYLQMNSLKPEDTANYYCTAASEMGYHYRGQGTLVTVSS	binds	binds	–
F0103495F09 (VHH) VHH: EVQLVESGGGLVQAGSSLSLSCAASGRALSTYAMGWFRQAPGKEREFVARISRSGITTYYTDSVKGRFTISRDRAKDTVYLQMNSLKPEDTAIYLCAADASTNPAGYYLRNRYDYWGQGTLVTVSS	–	–	binding (Navβ1 (human) [7]): binds
